# Data published in publication PMC10326375.
# Chains of the proteins cited; added tags and fusions are not shown. Lines headed by an entry give the natural chain unless they say otherwise; changes in a name come on top.
# UniProt P05067: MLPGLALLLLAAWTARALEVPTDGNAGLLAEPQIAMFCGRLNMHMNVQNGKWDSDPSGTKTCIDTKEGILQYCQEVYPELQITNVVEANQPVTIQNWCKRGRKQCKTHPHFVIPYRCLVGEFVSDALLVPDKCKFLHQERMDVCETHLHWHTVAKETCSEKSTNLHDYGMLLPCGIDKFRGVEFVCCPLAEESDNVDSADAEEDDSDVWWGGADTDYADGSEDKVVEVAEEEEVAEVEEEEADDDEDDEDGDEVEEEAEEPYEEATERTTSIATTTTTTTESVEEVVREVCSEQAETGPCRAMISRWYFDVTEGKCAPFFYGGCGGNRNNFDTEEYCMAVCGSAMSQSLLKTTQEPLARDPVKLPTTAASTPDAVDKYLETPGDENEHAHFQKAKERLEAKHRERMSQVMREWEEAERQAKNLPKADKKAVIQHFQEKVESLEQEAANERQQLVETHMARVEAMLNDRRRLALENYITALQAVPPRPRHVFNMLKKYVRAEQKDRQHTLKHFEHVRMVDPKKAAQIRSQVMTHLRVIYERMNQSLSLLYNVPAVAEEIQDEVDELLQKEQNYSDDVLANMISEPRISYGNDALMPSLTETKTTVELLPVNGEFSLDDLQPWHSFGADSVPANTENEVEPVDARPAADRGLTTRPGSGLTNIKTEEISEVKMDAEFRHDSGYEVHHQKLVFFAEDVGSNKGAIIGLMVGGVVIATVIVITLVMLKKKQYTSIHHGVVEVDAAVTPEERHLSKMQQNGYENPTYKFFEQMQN
# For at least one entry, the source does not settle the construct or the ends of the probe. At least one verdict was read from the data and is not stated in words by the source.
# Molecular target: Amyloid-beta 42 aggregates (sonicated fibrils) (UniProt P05067)
# Assay: single-molecule imaging (AD-PAINT, TIRF)
# Details: 100 nM Aptamer-DS1, 1 nM IS1-cy3B, 5 uM thioflavin-T (unit printed as mM in the extracted text, probably a lost mu); 1xPBS with 100 nM Aptamer-DS1, 1 nM IS1-cy3B and thioflavin-T; aggregates adsorbed on glass coverslip; aggregate adsorption at room temperature; recombinant protein; folded or branched DNA
sequence,measurement,value
GCCTGTGGTGTTGGGGCGGGTGCGTTATACATCTA [Aptamer-DS1],binding result,binds
